Changes are numbered by the printed parent chain. No constants are given. Whether binding was seen depends on the method and setting. Some binding calls cover weakened binding; strength is not graded here. Where a sequence is shown, tags or fusion partners need not be part of it.
Key:
[1] = target: T1, Schizosaccharomyces pombe U2AF1 (U2AF small subunit), wild type (Schizosaccharomyces pombe) (UniProt Q09176); test: crystal structure; U2AF1 complex (U2AF1 with U2AF2 93-161) co-crystallised with 3' splice site RNA (1:1.5); hanging-drop vapor diffusion, 10% PEG35000, 0.1 M sodium citrate pH 6.0, 4 or 20 °C; nine copies in the asymmetric unit; both purified
T1 sequence: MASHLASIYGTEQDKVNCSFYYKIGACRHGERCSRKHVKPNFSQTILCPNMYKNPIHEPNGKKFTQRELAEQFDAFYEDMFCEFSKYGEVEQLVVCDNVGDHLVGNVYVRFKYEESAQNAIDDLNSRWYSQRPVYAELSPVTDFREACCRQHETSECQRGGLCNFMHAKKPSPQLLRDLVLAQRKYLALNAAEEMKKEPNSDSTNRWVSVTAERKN

[2] = target: T2, Schizosaccharomyces pombe U2AF1 S34Y mutant (Schizosaccharomyces pombe) (UniProt Q09176); test: as above
T2 sequence: T1 sequence with S34Y

binding [1]: binds | binding [2]: binds
B1: Schizosaccharomyces pombe U2AF2 short fragment (residues 93-161) (domain or fragment, UniProt P36629 93-161)
chain: SSVGRSRSPPPSRERSVRSIEQELEQLRDVTPINQWKRKRSLWDIKPPGYELVTADQAKMSGVFPLPGA

— PMC7505975
